The subject of the test is neuronal stem cell cultures. The test can be described thus: HPLC measurement of intracellular thiol and methylation metabolites in differentiating NSCs. Conditions: differentiating NSCs at 3 dpp. The class given is cell-based. Here is the method:
Neuronal stem cell cultures were grown to confluence in stem cell-specific growth media as described in Example 2, and were then incubated with the indicated drugs for specific times. The medium was aspirated and the cells were washed twice with 1 mL of ice-cold HBSS. The HBSS was then aspirated and 0.6 mL of ice-cold dH2O was added to the cells and the cells scraped from the flask/dish. The cell suspension was sonicated for 15 s on ice and 100 μL of the sonicate was used to determine protein content. The remaining lysate was added to a microcentrifuge tube with an equal volume of 0.4 N perchloric acid, and incubated on ice for 5 min. […]
Concentrations of the following metabolites were measured: cysteine (CYS), cystine (CYS2), glutathione (GSH), glutathione disulfide (GSSG), homocysteine (HCY), homocystine
(HCY2), methionine (MET), S-adenosyl homocysteine (SAH), and S-adenosyl methionine (SAM). […] Sample concentrations were determined from the peak area for each metabolite using standard calibration curves and ESA software, and then normalised for protein concentration. […]
Results are expressed as the mean±standard error of the mean of direct counts of positive cells for each antibody from independent experiments done in triplicate or quadruplicate. […] In each culture, 25 predetermined visual fields were counted under a confocal microscope. […]

Turning to `CN1CC[C@]23c4c5ccc(O)c4O[C@H]2[C@@H](O)C=C[C@H]3[C@H]1C5` [morphine, Morphine], the GSH/GSSG ratio entry (FIG. 4) is “significantly increased”. In addition, the SAM/SAH ratio result (FIG. 5) was “significantly decreased”.

The values above are taken from patent US20190000128A1, “INFANT FORMULA COMPRISING HUMAN MILK PEPTIDES” (THE A2 MILK COMPANY LIMITED, priority 2015, published 2019).
